# In the M2OR odorant receptor database:
# Only a part is listed here, and it is no random draw. Calls are pooled over several reports, among them a noisy single-well screen.
# Experiments:
# Conditions in all cases: stereoisomer not certain
# UniProt Q8VGJ3 = molecular target: T1, UniProt Q8VGJ3
# T1 sequence (whole entry): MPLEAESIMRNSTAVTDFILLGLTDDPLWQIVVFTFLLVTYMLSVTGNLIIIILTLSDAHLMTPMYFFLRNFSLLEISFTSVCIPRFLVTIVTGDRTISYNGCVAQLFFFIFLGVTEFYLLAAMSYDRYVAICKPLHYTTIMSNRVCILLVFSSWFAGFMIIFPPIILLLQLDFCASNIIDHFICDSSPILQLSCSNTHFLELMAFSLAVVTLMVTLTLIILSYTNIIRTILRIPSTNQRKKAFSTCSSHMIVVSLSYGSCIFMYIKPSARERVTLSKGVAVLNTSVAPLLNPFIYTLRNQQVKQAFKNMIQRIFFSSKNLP
# Method in brief: (§1)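 Whether a receptor–molecule pair is responsive (active) rests on the original authors' judgment that its measured signal was statistically different from baseline. Pairs without that judgment are non-responsive (inactive). Sources used varied assay methods, commonly transient luciferase assays in mammalian cell lines.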
# UniProt Q8VGL0 = molecular target: T2, UniProt Q8VGL0
# T2 sequence (whole entry): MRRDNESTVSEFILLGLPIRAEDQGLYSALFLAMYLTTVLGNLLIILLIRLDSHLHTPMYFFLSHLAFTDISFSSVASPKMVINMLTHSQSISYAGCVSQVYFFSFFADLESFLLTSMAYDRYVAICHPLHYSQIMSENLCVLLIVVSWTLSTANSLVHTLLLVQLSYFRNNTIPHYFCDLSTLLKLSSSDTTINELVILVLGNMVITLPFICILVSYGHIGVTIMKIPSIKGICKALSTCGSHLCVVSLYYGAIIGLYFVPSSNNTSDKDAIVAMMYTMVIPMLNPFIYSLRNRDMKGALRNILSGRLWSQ
# Method in brief: as §1
# UniProt Q8VGU3 = molecular target: T3, UniProt Q8VGU3
# T3 sequence (whole entry): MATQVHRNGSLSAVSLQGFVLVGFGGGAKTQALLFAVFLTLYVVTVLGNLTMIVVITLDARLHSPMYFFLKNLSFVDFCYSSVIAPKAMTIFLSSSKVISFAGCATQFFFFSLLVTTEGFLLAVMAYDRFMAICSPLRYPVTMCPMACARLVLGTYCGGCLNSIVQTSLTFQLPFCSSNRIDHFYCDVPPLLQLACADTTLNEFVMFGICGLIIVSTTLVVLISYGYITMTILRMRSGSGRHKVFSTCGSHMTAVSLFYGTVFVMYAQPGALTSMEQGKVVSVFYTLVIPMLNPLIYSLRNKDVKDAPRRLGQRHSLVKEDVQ
# Method in brief: as §1
# UniProt Q8VGV7 = molecular target: T4, UniProt Q8VGV7
# T4 sequence (whole entry): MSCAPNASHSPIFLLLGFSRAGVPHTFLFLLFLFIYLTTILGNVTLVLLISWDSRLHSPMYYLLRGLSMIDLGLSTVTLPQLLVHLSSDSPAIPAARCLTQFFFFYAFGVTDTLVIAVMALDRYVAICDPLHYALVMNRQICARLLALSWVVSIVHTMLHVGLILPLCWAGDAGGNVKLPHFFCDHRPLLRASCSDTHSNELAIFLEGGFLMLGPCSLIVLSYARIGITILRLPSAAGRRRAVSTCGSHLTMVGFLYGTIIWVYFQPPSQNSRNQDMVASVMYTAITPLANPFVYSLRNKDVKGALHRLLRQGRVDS
# Method in brief: as §1
# UniProt Q8VGX3 = molecular target: T5, UniProt Q8VGX3
# T5 sequence (whole entry): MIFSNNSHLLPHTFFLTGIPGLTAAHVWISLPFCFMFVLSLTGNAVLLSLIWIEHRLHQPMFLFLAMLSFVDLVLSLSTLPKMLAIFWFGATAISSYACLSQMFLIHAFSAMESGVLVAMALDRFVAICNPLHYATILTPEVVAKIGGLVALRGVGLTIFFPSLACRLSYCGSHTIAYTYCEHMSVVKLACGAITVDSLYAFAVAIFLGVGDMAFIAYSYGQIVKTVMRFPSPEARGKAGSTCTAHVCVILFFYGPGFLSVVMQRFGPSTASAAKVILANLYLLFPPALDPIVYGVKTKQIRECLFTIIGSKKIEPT
# Method in brief: as §1
# UniProt Q8VGX5 = molecular target: T6, UniProt Q8VGX5
# T6 sequence (whole entry): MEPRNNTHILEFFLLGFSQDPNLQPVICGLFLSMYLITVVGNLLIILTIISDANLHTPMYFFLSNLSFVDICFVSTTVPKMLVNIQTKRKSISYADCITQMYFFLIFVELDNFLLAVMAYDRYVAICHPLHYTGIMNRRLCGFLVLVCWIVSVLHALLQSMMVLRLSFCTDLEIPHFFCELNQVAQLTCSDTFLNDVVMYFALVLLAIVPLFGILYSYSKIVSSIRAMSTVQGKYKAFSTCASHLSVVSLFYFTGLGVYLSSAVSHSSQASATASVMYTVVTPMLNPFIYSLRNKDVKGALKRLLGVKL
# Method in brief: as §1
# UniProt Q8VGZ2 = molecular target: T7, UniProt Q8VGZ2
# T7 sequence (whole entry): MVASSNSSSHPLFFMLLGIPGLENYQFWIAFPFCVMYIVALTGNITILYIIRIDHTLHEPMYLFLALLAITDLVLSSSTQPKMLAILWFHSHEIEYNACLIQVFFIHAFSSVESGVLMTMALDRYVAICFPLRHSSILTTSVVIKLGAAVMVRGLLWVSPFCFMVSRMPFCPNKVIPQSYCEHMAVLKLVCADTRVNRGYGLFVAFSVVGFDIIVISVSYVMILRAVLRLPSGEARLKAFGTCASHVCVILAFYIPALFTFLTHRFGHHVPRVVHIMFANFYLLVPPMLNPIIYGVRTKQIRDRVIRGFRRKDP
# Method in brief: as §1
# 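Also: active if original authors judged signal statistically different from baseline.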
smiles,measurement,setting,value
CC1COCc2cc3c(cc21)C(C)(C)C(C)C3(C)C (configuration not stated),odorant receptor agonist call,UniProt Q8VGJ3,active
same,odorant receptor agonist call,UniProt Q8VGL0,inactive
same,odorant receptor agonist call,UniProt Q8VGU3,inactive
same,odorant receptor agonist call,UniProt Q8VGV7,inactive
same,odorant receptor agonist call,UniProt Q8VGX3,inactive
same,odorant receptor agonist call,UniProt Q8VGX5,inactive
same,odorant receptor agonist call,UniProt Q8VGZ2,inactive
